Data: doi:10.1101/2025.03.06.641832 (bioRxiv, 2025)
These are yes or no findings as the source states them, for the method shown. In cells and extracts the contact can be indirect. Some binding calls cover weakened binding; strength is not graded here.

The chains behind the UniProt entries cited, without tags or fusion partners. Where a name states a change or a piece, a line headed by the entry shows the natural chain unless it says otherwise.
UniProt P15682: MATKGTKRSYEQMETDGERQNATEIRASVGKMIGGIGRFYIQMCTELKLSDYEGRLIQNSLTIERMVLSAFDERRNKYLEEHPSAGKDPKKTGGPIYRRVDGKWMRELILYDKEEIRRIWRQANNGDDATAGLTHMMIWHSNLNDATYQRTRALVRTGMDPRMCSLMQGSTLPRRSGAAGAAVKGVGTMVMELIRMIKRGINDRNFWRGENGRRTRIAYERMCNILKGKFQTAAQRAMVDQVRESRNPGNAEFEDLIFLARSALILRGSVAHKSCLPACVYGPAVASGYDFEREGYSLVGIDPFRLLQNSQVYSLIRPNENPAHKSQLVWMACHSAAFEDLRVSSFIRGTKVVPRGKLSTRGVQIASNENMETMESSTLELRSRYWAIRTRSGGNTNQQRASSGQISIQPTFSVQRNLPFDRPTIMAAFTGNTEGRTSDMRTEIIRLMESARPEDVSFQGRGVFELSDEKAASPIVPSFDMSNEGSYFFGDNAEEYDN

Columns and labels:
Test in all cases: co-IP
[1] = molecular target: nucleoprotein of A/H1N1/WSN virus in infected cells (NP/RNP) (influenza A virus A/WSN/1933 (H1N1)) (UniProt P15682)
[2] = molecular target: full length PKCα (PKCα-FL) (UniProt P17252)
[3] = molecular target: MEK2-FLAG (human (cDNA from A549 cells)) (UniProt P36507)

Row | Substance | binding [1] | binding [2] | binding [3]
1 | endogenous PKCα (from UniProt P17252 1-672) (enzyme) | binds |  | 
2 | influenza A/H1N1/WSN nucleoprotein, V5-tagged (NP-V5) (from UniProt P15682 8-498) |  | binds | no binding
